Data source: PubChem BioAssay AID1159578 (Peter MacCallum Cancer Centre, 2015)
The whole screen tested about 18,000 reagents; this is a part drawn at random. Over the whole deposit, about 1,030 (5.7%) are marked active. 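Inactive calls also include pools with fewer than 3300 nuclei, whose migration was not assessed.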 The raw values are shown without normalisation.

Test: 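Genome-wide hunt for genes controlling movement of lymphatic endothelial cells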 (primary screen)
System: human lymphatic endothelial cells
Reagent: siRNA pool against human genes, 40 nM
Duration: 48 h after transfection
Read-out: 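Cells stained with dye and imaged after a scratch; covered wound area and nuclei counted, duplicates averaged, migration set against mock wells and turned into a robust z-score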
Reading the numbers: migration robust z-score: higher = faster migration into the scratch; migration relative to mock: higher = more scratch area covered than mock; nuclei per well: higher = more cells in the well
Call rule: 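Migration changed when robust z exceeds 2 or falls below -2 and mean nuclei number is at least 3300; otherwise not called changed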
Meaning of the calls: active = migration changed; inactive = no migration change, or too few cells

| gene | PubChem SID | migration robust z-score | migration class with cell-count check | migration relative to mock | nuclei per well, duplicate mean | activity call |
| --- | --- | --- | --- | --- | --- | --- |
| IARS1 | SID255350370 | 1.22 | migration z between -2 and 2; enough cells | 1.04 | 5763 | inactive |
| TUBA1A | SID255353315 | -0.89 | migration z between -2 and 2; enough cells | 0.64 | 5540 | inactive |
| CFI | SID255350392 | -1.17 | migration z between -2 and 2; enough cells | 0.58 | 5070 | inactive |
| GHDC | SID255361387 | -0.07 | migration z between -2 and 2; enough cells | 0.87 | 5752 | inactive |
| NKPD1 | SID255364769 | -0.48 | migration z between -2 and 2; enough cells | 0.76 | 5960 | inactive |
| TFE3 | SID255352830 | -0.14 | migration z between -2 and 2; enough cells | 0.85 | 7670 | inactive |
| DGLUCY | SID255360627 | 0.09 | migration z between -2 and 2; enough cells | 0.91 | 6982 | inactive |
| PRDX1 | SID255351405 | 0.22 | migration z between -2 and 2; enough cells | 0.94 | 6092 | inactive |
| TAF4 | SID255352731 | -0.18 | migration z between -2 and 2; enough cells | 0.77 | 5624 | inactive |
| SEMG1 | SID255352364 | -0.12 | migration z between -2 and 2; enough cells | 0.85 | 5719 | inactive |
| LOXL1 | SID255350786 | 0.91 | migration z between -2 and 2; enough cells | 0.98 | 4644 | inactive |
| PROSER2 | SID255364459 | -0.26 | migration z between -2 and 2; enough cells | 0.82 | 5088 | inactive |
| CORO1B | SID255359319 | -0.8 | migration z between -2 and 2; enough cells | 0.68 | 5826 | inactive |
| APOL1 | SID255353634 | -0.8 | migration z between -2 and 2; enough cells | 0.65 | 4466 | inactive |
| SLC27A2 | SID255355513 | -0.76 | migration z between -2 and 2; enough cells | 0.66 | 6290 | inactive |
| MAP7D2 | SID255364537 | 0.31 | migration z between -2 and 2; enough cells | 0.96 | 6044 | inactive |
| NOL3 | SID255353959 | 0.64 | migration z between -2 and 2; enough cells | 1.05 | 5372 | inactive |
| THOC6 | SID255360264 | 0.5 | migration z between -2 and 2; enough cells | 1.02 | 6980 | inactive |
| EOLA2 | SID255366033 | -0.3 | migration z between -2 and 2; enough cells | 0.8 | 5808 | inactive |
| MRM1 | SID255360568 | -0.18 | migration z between -2 and 2; enough cells | 0.84 | 5336 | inactive |
| ANGEL2 | SID255361861 | -0.78 | migration z between -2 and 2; enough cells | 0.69 | 6013 | inactive |
| MRGPRD | SID255362383 | -0.57 | migration z between -2 and 2; enough cells | 0.7 | 7214 | inactive |
| ZBED8L | SID255364318 | -0.44 | migration z between -2 and 2; enough cells | 0.77 | 6364 | inactive |
| CDK15 | SID255360081 | -0.02 | migration z between -2 and 2; enough cells | 0.8 | 5722 | inactive |
| VIPAS39 | SID255359759 | 0.4 | migration z between -2 and 2; enough cells | 0.99 | 5627 | inactive |
| IL18RAP | SID255353828 | 1.55 | migration z between -2 and 2; enough cells | 1.1 | 4962 | inactive |
| ZBTB5 | SID255354671 | -0.28 | migration z between -2 and 2; enough cells | 0.82 | 6014 | inactive |
| GPN3 | SID255357543 | -0.33 | migration z between -2 and 2; enough cells | 0.8 | 5904 | inactive |
| C3orf18 | SID255357526 | 0.29 | migration z between -2 and 2; enough cells | 0.96 | 5800 | inactive |
| ANTXR1 | SID255361224 | -0.38 | migration z between -2 and 2; enough cells | 0.78 | 6407 | inactive |
| MMP16 | SID255351003 | 0.55 | migration z between -2 and 2; enough cells | 0.91 | 5651 | inactive |
| GOLT1A | SID255362775 | -0.22 | migration z between -2 and 2; enough cells | 0.82 | 6074 | inactive |
| FASTKD1 | SID255360380 | -1.86 | migration z between -2 and 2; enough cells | 0.4 | 7130 | inactive |
| APOC2 | SID255348351 | 0.72 | migration z between -2 and 2; enough cells | 0.94 | 4718 | inactive |
| MSH2 | SID255351032 | 1.03 | migration z between -2 and 2; enough cells | 1 | 5005 | inactive |
| SNRPD3 | SID255352553 | -1.68 | migration z between -2 and 2; enough cells | 0.45 | 5496 | inactive |
| CCDC47 | SID255359227 | 0.48 | migration z between -2 and 2; enough cells | 1 | 6545 | inactive |
| PLCB3 | SID255351617 | -0.12 | migration z between -2 and 2; enough cells | 0.86 | 6396 | inactive |
| POLA1 | SID255351673 | -1.14 | under 3300 nuclei; migration not judged | 0.58 | 2695 | inactive |
| SMARCA1 | SID255352515 | -0.39 | migration z between -2 and 2; enough cells | 0.73 | 5058 | inactive |
| H3C3 | SID255353495 | 1.52 | migration z between -2 and 2; enough cells | 1.28 | 5890 | inactive |
| CHMP4B | SID255362820 | -0.43 | migration z between -2 and 2; enough cells | 0.77 | 7611 | inactive |
| TRIM71 | SID255362894 | 0.75 | migration z between -2 and 2; enough cells | 0.95 | 5549 | inactive |
| TRIM73 | SID255365377 | -1.04 | migration z between -2 and 2; enough cells | 0.6 | 5602 | inactive |
| NCLN | SID255359172 | -0.28 | migration z between -2 and 2; enough cells | 0.82 | 5652 | inactive |
| ZNF484 | SID255361084 | -1.87 | under 3300 nuclei; migration not judged | 0.39 | 2340 | inactive |
| TPCN1 | SID255357924 | -1.4 | migration z between -2 and 2; enough cells | 0.54 | 4428 | inactive |
| REPIN1 | SID255357181 | -0.73 | migration z between -2 and 2; enough cells | 0.7 | 5231 | inactive |
| LSM5 | SID255356396 | -0.2 | migration z between -2 and 2; enough cells | 0.84 | 5674 | inactive |
| ZNF263 | SID255354829 | -0.32 | migration z between -2 and 2; enough cells | 0.8 | 7792 | inactive |
| OGFR | SID255355553 | -1.46 | migration z between -2 and 2; enough cells | 0.52 | 3830 | inactive |
| KANK4 | SID255363797 | 1.85 | migration z between -2 and 2; enough cells | 1.36 | 6331 | inactive |
| MYBL2 | SID255351086 | 2.8 | migration z above 2; enough cells | 1.34 | 5980 | active |
| AKAP13 | SID255355684 | 0.99 | migration z between -2 and 2; enough cells | 1 | 5706 | inactive |
| PPIG | SID255354217 | 0.96 | migration z between -2 and 2; enough cells | 0.99 | 5570 | inactive |
| CENPB | SID255348871 | 0.24 | migration z between -2 and 2; enough cells | 0.94 | 7174 | inactive |
| SAXO1 | SID255363657 | -0.1 | migration z between -2 and 2; enough cells | 0.86 | 5997 | inactive |

5 entries already listed, arranged by “nuclei per well, duplicate mean”, ascending.
| gene | PubChem SID | migration robust z-score | migration class with cell-count check | migration relative to mock | nuclei per well, duplicate mean | activity call |
| --- | --- | --- | --- | --- | --- | --- |
| APOL1 | SID255353634 | -0.8 | migration z between -2 and 2; enough cells | 0.65 | 4466 | inactive |
| PROSER2 | SID255364459 | -0.26 | migration z between -2 and 2; enough cells | 0.82 | 5088 | inactive |
| CORO1B | SID255359319 | -0.8 | migration z between -2 and 2; enough cells | 0.68 | 5826 | inactive |
| MAP7D2 | SID255364537 | 0.31 | migration z between -2 and 2; enough cells | 0.96 | 6044 | inactive |
| SLC27A2 | SID255355513 | -0.76 | migration z between -2 and 2; enough cells | 0.66 | 6290 | inactive |
